{"sequences": {"note": "The chains behind the UniProt entries cited, without tags or fusion partners. Where a name states a change or a piece, a line headed by the entry shows the natural chain unless it says otherwise.", "UniProt P26612": "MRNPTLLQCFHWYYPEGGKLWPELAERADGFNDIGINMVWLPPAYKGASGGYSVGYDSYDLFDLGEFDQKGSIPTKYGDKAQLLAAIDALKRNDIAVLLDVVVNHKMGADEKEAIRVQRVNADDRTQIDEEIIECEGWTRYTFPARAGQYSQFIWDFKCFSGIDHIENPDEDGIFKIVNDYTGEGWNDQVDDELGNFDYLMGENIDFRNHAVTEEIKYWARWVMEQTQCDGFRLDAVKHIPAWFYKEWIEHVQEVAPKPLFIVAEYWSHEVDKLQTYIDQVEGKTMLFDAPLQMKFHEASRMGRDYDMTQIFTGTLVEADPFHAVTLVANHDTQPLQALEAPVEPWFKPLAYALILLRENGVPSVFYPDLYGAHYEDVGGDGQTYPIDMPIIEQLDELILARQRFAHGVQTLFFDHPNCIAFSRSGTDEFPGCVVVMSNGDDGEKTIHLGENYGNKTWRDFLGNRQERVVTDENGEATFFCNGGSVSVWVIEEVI", "UniProt P30750": "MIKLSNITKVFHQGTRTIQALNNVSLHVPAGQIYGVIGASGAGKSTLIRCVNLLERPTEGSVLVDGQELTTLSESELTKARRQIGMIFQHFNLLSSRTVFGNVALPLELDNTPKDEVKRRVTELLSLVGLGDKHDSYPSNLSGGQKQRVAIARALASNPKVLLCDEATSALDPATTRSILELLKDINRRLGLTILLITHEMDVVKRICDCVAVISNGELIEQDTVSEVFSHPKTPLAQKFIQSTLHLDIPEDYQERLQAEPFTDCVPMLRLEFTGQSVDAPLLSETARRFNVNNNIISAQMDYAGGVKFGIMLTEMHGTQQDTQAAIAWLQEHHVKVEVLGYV", "UniProt P33371": "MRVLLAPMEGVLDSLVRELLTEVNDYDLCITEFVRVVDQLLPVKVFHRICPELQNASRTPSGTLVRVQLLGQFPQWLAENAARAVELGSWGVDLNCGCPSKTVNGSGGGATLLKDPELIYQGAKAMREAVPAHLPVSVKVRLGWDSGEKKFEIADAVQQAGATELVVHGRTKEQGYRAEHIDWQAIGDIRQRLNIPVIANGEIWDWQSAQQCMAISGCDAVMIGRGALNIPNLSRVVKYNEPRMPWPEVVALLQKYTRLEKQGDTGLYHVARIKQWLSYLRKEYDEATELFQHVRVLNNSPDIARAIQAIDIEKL"}, "source": "the supplement of paper PMC12819154", "about": "“High-throughput peptide-centric local stability assay extends protein–ligand identification to membrane proteins, tissues and bacteria” (Nature Structural & Molecular Biology, 2025)", "note": "This is one part of the list. Most values lie at the level of the controls, where differences are scatter."}
{"compound": "CC1(C)S[C@@H]2[C@H](NC(=O)[C@H](N)c3ccccc3)C(=O)N2[C@H]1C(=O)O [ampicillin]", "test": "log2 fold change of tryptic peptide abundance, ligand vs vehicle (limited proteolysis) (log2 ratio); higher = more trypsin-susceptible (destabilized)", "conditions": "ligand concentration: 10 uM; sample: E. coli crude lysate"}
{"target": "UniProt P26612 (peptide sequence: MGADEKEAIR, peptide start residue: 107)", "log2 fold change": -1.42}
{"target": "UniProt P30750 (peptide sequence: RQIGMIFQHFNLLSSR, peptide start residue: 82)", "log2 fold change": 0.175}
{"target": "UniProt P33371 (peptide sequence: KEYDEATELFQHVR, peptide start residue: 282)", "log2 fold change": 0.939}
